In patent US20240117042A1:
These are yes or no findings as the source states them, for the method shown. Some entries that bind do so weakly or less than the wild type.

Amino acid sequences for entries named in this document (tags omitted). Residues count along the entry.
UniProt P43630, residues 22-455: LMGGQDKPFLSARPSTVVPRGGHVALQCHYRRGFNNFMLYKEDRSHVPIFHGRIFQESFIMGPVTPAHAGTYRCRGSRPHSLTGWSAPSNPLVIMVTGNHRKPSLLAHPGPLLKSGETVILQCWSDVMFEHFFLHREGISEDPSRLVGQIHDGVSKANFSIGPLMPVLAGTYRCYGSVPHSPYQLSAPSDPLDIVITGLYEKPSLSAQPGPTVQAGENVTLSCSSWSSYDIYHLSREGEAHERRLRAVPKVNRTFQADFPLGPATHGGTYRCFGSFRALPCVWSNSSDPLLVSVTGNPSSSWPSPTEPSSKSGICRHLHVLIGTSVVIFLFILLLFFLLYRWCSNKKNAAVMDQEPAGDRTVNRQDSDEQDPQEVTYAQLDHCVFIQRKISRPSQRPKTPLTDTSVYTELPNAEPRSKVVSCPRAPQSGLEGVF

Tests used:
[1] = molecular target: human KIR3DL2 on cells (human) (UniProt P43630); assay: IHC on FFPE PTCL tumor samples
[2] = molecular target: human KIR3DL2 on cells (human) (UniProt P43630); assay: IHC on FFPE Mycosis Fungoides (CTCL) tumor samples
[3] = molecular target: human KIR3DL2 on cells (human) (UniProt P43630); assay: IHC on FFPE PTCL biopsies
[4] = molecular target: human KIR3DL2 on cells (human) (UniProt P43630); assay: IHC on FFPE CTCL biopsies, percent KIR3DL2+ cells estimated by a pathologist, against 12B11 on matched frozen biopsies
[5] = molecular target: human KIR3DL2 on cells (human) (UniProt P43630); assay: IHC at 5 µg/mL on FFPE CTCL samples, Leica Bond RX
[6] = molecular target: human KIR3DL2 on cells (human) (UniProt P43630); assay: IHC, rabbit IgG at 10, 7.5, 5 and 2.5 µg/mL on FFPE cell pellets, Ventana Benchmark Ultra
[7] = molecular target: human KIR3DL2 on cells (human) (UniProt P43630); assay: IHC at 5 µg/mL on Raji/HuT 78 mixed FFPE cell pellets, Leica Bond RX
[8] = molecular target: human KIR3DL2 on cells (human) (UniProt P43630); assay: IHC on FFPE CHO-mb-HuKIR3DL2 cell pellets, several antibody concentrations, optical density by HistoQuantif (FIG. 6)
[9] = molecular target: human KIR3DL2 on cells (human) (UniProt P43630); assay: IHC on FFPE HuT 78 cell pellets
[10] = molecular target: human KIR3DL2 on cells (human) (UniProt P43630); assay: IHC at 5 µg/mL on FFPE PTCL samples, Leica Bond RX
[11] = molecular target: human KIR3DL2 on cells (human) (UniProt P43630); assay: IHC at 5 µg/mL on CHO/CHO-mb-HuKIR3DL2 mixed FFPE cell pellets, Leica Bond RX

Measured: binding

B1: P3-R4D-H5 rabbit IgG (antibody, V domains shown)
VH: QSLEESGGRLVTPGTPLTLTCTVSGFSLSTYAMSWVRQAPGKGLEWIGIIGASGNTWYASWAKGRFTISKTSTTVGLKITSPTTEDTATYFCARFWAGYPSNAAATVSGMDPWGPGTLVTVSS
VL: ELVLTQSPSLSASLDTTARLACTLSTGYSVGSYGIGWYQQVPGRPPRYLLTYHTEEIKHQGSGVPTRFSGSKDTSENTAVLSISGLQPEDEADYYCATAHGSGSSFHVVFGGGTQLTVT
binds: [1] | [2] | [3] | [4] | [5] | [6] | [7] | [8] | [9] | [10] | [11]
